Data taken from PubChem BioAssay AID540256 (National Center for Advancing Translational Sciences (NCATS), 2011).
Among all 300,000 compounds or so, about 3,700 (1.2%) were called active. Inconclusive results, whose numbers are uncertain, are shown with a selection of clear calls. The call rests on the fitted dose curve; tested in HEK293 cells. Where the call is inconclusive, the potency comes from a doubtful curve fit.

Assay: qHTS for Inhibitors of binding or entry into cells for Lassa Virus; further: nearly all actives have a fitted effect of over 50% in size
Settings: Lassa virus pseudotype entry inhibition, cell reporter; series mostly up to 37.9 µM
Potency means the concentration at half of the fitted maximal effect.

SMILES | Potency
O=C(NC(Cc1c[nH]c2ccccc12)C(=O)Nc1ccc(F)c([N+](=O)[O-])c1)c1cccs1 (stereo not drawn) | active: 0.58 µM
Cc1nc(Nc2nc(-c3ccccc3)cc(=O)[nH]2)nc2ccccc12 | inconclusive: 2.51 µM [inhibitor, partial curve, poor fit]
Cc1ccc(N2C(=O)CS/C2=N\C(=S)Nc2ccccc2)cc1 | inconclusive: 35.5 µM [inhibitor, single point]
Cc1ccc(NC(=O)NC2CCCCC2)cc1S(=O)(=O)N1CCOCC1 | inconclusive: 2.82 µM [inhibitor, full curve, poor fit]
Cc1c(Cl)cccc1-n1nc(C)c2c(C)cc(=O)n(CC(=O)N3CCCc4ccccc43)c21 | inconclusive: 1 µM [inhibitor, full curve, poor fit]
COc1cc(/C=C2\N=C(c3ccccc3)NNC2=O)cc(OC)c1OC | inconclusive: 0.501 µM [inhibitor, full curve, poor fit]
Cn1cnnc1SCc1ccc(C(=O)N/N=C(/CCC(=O)O)c2ccc(C(C)(C)C)cc2)cc1 | inconclusive: 6.31 µM [inhibitor, single point]
CCOC(=O)N1CCN(CC(O)c2c[nH]c3ccccc23)CC1 (stereo not drawn) | inconclusive: 1.26 µM [inhibitor, single point]
CC(C(=O)O)N1C(=O)C2C3CC(C2C1=O)C1C(c2ccccc2)c2sc(=O)[nH]c2SC31 (stereo not drawn) | inactive
CCOC(=O)C1(C)NC(c2cccs2)C2C(=O)N(c3ccc(C)cc3)C(=O)C21 (stereo not drawn) | inconclusive: 0.562 µM [inhibitor, full curve, poor fit]
CCC(C)(C)NC(=O)Cc1ccc(Cl)cc1 | inconclusive: 1.12 µM [activator, full curve, poor fit]
O=C(Nc1ccc(Cl)cc1Cl)NC1CCCC1 | inactive
Cc1ccc2c(c1)C1CN(C)CCC1N2C(=S)Nc1ccc(OC(F)F)cc1 (stereo not drawn) | inconclusive: 35.5 µM [inhibitor, single point]
O=C(CSc1nc(-c2ccc(F)cc2)cc(C(F)(F)F)n1)NCc1cccs1 | inactive
CCC(C)C(=O)Nc1nnc(SCC(=O)N2C(C)CCCC2C)s1 (stereo not drawn) | inconclusive: 5.62 µM [inhibitor, single point]
COc1cccc([C@@H]2Oc3ccc(OC)cc3C(=O)[C@H]2O)c1 | inconclusive: 32.6 µM [inhibitor, single point]
COc1ccc(OC)c(Nc2nc(-c3sc(C)nc3C)cs2)c1 | inconclusive: 11.6 µM [inhibitor, partial curve, poor fit]
Cc1cc(NC(=O)CSc2nc3ccccc3c(=O)n2C(C)c2ccccc2)no1 (stereo not drawn) | active: 2.51 µM
Cc1cccc(Nc2ccccc2C(=O)OCC(=O)NCc2ccco2)c1C | inactive
Oc1ccc(Cl)cc1CNc1nccs1 | inconclusive: 10 µM [inhibitor, partial curve, poor fit]
CCNc1nc(-c2ccc(Cl)cc2)cs1 | inconclusive: 1.58 µM [activator, partial curve, poor fit]
O=C1N=C(N2CCOCC2)S/C1=C/c1ccc(-c2ccccc2Cl)o1 | inconclusive: 13 µM [inhibitor, partial curve, poor fit]
COc1cc2c(cc1NC(=O)C(C)OC(=O)C1CC(=O)N(Cc3ccco3)C1)oc1ccccc12 (stereo not drawn) | inactive

SMILES | Potency
CCn1c(CNC(=O)c2ccccc2Br)nnc1SCC(=O)Nc1nncs1 | inconclusive: 14.1 µM [inhibitor, single point]
CC1CN(S(=O)(=O)c2ccc(C(=O)Nc3nc(-c4cc5ccccc5o4)cs3)cc2)CC(C)O1 (stereo not drawn) | inconclusive: 2 µM [inhibitor, full curve, poor fit]
COc1cccc(NC(=O)N(Cc2cn(C)c3ccccc23)C2CCCCCC2)c1 | inconclusive: 20 µM [inhibitor, partial curve, poor fit]
COc1ccc(CN2CCCC(C(=O)c3ccc(Cl)cc3)C2)cc1Cn1cccn1 (stereo not drawn) | active: 10 µM
CCN1CCN(c2cc(C)c3cc(NC(=O)/C=C/c4ccc(C)cc4)ccc3n2)CC1 | inactive
O=[N+]([O-])c1ccc(O)c(/C=N\N=C2c3ccccc3-c3ccccc32)c1 | inconclusive: 20 µM [inhibitor, single point]
COc1ccc(C(=O)NC(C)C2CC3CCC2C3)cc1 (stereo not drawn) | inconclusive: 3.55 µM [inhibitor, single point]
O=C(NCCCc1nc2ccccc2n1Cc1cccc(Cl)c1)C1CCCCC1 | inconclusive: 3.16 µM [inhibitor, full curve]
CC1=CC(C)(C)[N+](C)=CN1c1ccccc1 | inactive
O=C(c1ccc2c(c1)N(Cc1ccc(Cl)cc1)C(=O)c1ccccc1S2=O)N1CCC(Cc2ccccc2)CC1 (stereo not drawn) | inconclusive: 8.91 µM [inhibitor, partial curve, poor fit]
COc1cc(C(=O)NCCC2=CCCCC2)cc(OC)c1OC | inconclusive: 20.6 µM [inhibitor, single point]
Cc1nc2c(=O)n(C)c(=O)[nH]c2n1Cc1ccccc1 | inactive
COc1ccc(-c2c(-c3ccc(OCC(=O)NN)cc3O)n[nH]c2C(F)(F)F)cc1 | inconclusive: 32.6 µM [inhibitor, single point]
CCOC(=O)/C(=N\Nc1ccc(C(C)=O)cc1)c1csc(Nc2ccccc2)n1 | inconclusive: 3.98 µM [inhibitor, partial curve, poor fit]
Cc1ccc(-n2nnnc2SCC(=O)N2c3ccccc3NC(=O)C2(C)C)cc1 | inconclusive: 20.6 µM [inhibitor, partial curve, poor fit]
Cc1cc(C(=O)Nc2ccc(N3CCCCC3)cc2)no1 | active: 11.2 µM
CCOC(=O)c1cccc(NC(=O)c2ccc3nc(CCc4ccccc4)oc3c2)c1 | inactive
CC(C)OP(=O)(OC(C)C)C(Nc1ccccc1)c1ccc2c(c1)OCO2 (stereo not drawn) | inconclusive: 25.1 µM [inhibitor, single point]
Nc1cc(N)nc(SCC(=O)c2ccccc2)n1 | inconclusive: 20.6 µM [activator, single point]
CN(Cc1ccon1)Cc1cn[nH]c1-c1ccc(-c2ccccc2)cc1 | inconclusive: 20 µM [inhibitor, single point]
CCNC(=O)N1CCCC(C(=O)c2ccc3cc(OC)ccc3c2)C1 (stereo not drawn) | inactive
O=C(Cc1cccs1)N1CCC(c2nc3c(nnn3Cc3ccccc3Cl)c(=O)[nH]2)CC1 | inconclusive: 7.3 µM [inhibitor, partial curve, poor fit]
O=Cc1c(-c2ccc(Cl)cc2)oc2ccc(O)cc12 | inactive

Some of the entries so far, as a markdown table:

| SMILES | Potency |
| --- | --- |
| O=C(NC(Cc1c[nH]c2ccccc12)C(=O)Nc1ccc(F)c([N+](=O)[O-])c1)c1cccs1 (stereo not drawn) | active: 0.58 µM |
| COc1cc(/C=C2\N=C(c3ccccc3)NNC2=O)cc(OC)c1OC | inconclusive: 0.501 µM [inhibitor, full curve, poor fit] |
| Cc1ccc2c(c1)C1CN(C)CCC1N2C(=S)Nc1ccc(OC(F)F)cc1 (stereo not drawn) | inconclusive: 35.5 µM [inhibitor, single point] |
| COc1cccc([C@@H]2Oc3ccc(OC)cc3C(=O)[C@H]2O)c1 | inconclusive: 32.6 µM [inhibitor, single point] |
| COc1ccc(-c2c(-c3ccc(OCC(=O)NN)cc3O)n[nH]c2C(F)(F)F)cc1 | inconclusive: 32.6 µM [inhibitor, single point] |

Additional entries

SMILES | Potency
C[N+]1(C)CCC(=C2c3ccccc3CC(=O)c3sccc32)CC1 | inactive
O=C(CNC(=O)c1ccccc1F)NCCOc1ccccc1Cl | inconclusive: 29.1 µM [activator, partial curve, poor fit]
Cn1ccnc1CC(O)(c1ccccc1)c1ccccc1 | inconclusive: 11.2 µM [activator, partial curve]
Cc1cc(Cn2nnc(-c3ccc(Br)cc3)n2)cc(C)c1O | inconclusive: 35.5 µM [inhibitor, single point]
COc1cccc(/C=N/NC(=O)c2ccc(-c3ccccc3)cc2)c1O | active: 5.62 µM
CSc1oc(-c2ccccc2)nc1S(=O)(=O)c1ccc(C)cc1 | inconclusive: 20.6 µM [inhibitor, partial curve, poor fit]
Cc1cccc(C(=O)NCC(=O)N2CCN(c3ccccn3)CC2)c1 | inactive
COc1ccc(C2=CC3=C(Br)C(=O)C(C)(OC(=O)c4ccc(Cl)nc4)C(=O)C3=CO2)cc1 (stereo not drawn) | inconclusive: 0.015 µM [activator, full curve, poor fit]
C=CCNc1oc(-c2ccc(OCC)cc2)nc1C#N | inconclusive: 0.58 µM [activator, full curve, poor fit]
COc1ccc(CNC(=O)CN(C(=O)CCC(=O)Nc2ccccn2)c2ccc(C)cc2)cc1 | inconclusive: 3.16 µM [inhibitor, full curve, poor fit]
CSc1nc(=S)c2[nH]c(=S)[nH]c2[nH]1 | inconclusive: 35.5 µM [inhibitor, single point]
CC(=O)Nc1nc(SCCCc2ccccc2)n[nH]1 | inactive
Cc1n[nH]c(C)c1N=Nc1ccc(Br)cc1 | inconclusive: 35.5 µM [activator, single point]
Cc1csc(N(C(=O)c2cccc(S(=O)(=O)N(C)C)c2)c2ccccc2)n1 | inconclusive: 3.26 µM [inhibitor, partial curve, poor fit]
O=C(NN1C(=O)/C(=C/c2ccc(O)c(O)c2)SC1=S)c1ccccc1 | inconclusive: 12.6 µM [activator, single point]
COc1ccc(N2C(=O)C(CN3CCN(C)CC3)C2c2ccccc2)cc1 (stereo not drawn) | inactive
CN(c1ccc(C(=O)Nc2ccccc2Sc2ccccc2)cc1)S(C)(=O)=O | inconclusive: 35.5 µM [inhibitor, single point]
CCOC(=O)c1ccc(NC(=O)Nc2ccc(OC)c(OC)c2)cc1 | inactive
CCCCOC(=O)c1ccc(NC(=O)c2csnn2)cc1 | inconclusive: 6.31 µM [activator, partial curve]
COC(=O)c1cn(CC(=O)NC2CCCCCC2)c2ccccc12 | inactive
COc1ccc(C(=O)/C=C/C(=O)N(Cc2ccccc2)C(C(=O)NC2CCCCC2)c2ccncc2)c(O)c1 (stereo not drawn) | inconclusive: 20 µM [inhibitor, single point]
CC(C)OC(=O)CC(=O)CSc1nc(-c2ccc(F)cc2)cc(-c2ccccc2)c1C#N | inconclusive: 35.5 µM [inhibitor, single point]
